Data from patent publication EP1001761B1, “USE OF CHOLINESTERASE INHIBITORS FOR TREATING ATTENTION DEFICIT DISORDERS” (priority 1997, dated 1999).
At least one compound was matched to its structure with a doubt left.

Assays:
[1] = system: patients diagnosed as having ADD; assay: treatment of ADD patients aged 9 to 11 years, judged on an ecological behavioural scale (Home and School Situations Questionnaires); type: in vivo; conditions: three patients aged 9 to 11 years, 5 mg 3 times per day for 14 days
patients with ADD = assay: treatment of two ADD patients, measured by ANT (Amsterdam Neuropsychological Tests), reaction times for different tasks; type: in vivo
From the text: The protocol in this case is first a baseline testing before medication and retesting after 2 days on medication and then after a week repeated testing. Ecological scales were also used before and are now being evaluated after one week after two weeks etc. for a treatment of one month duration.

SMILES: COc1ccc2c3c1O[C@H]1C[C@@H](O)C=C[C@@]31CCN(C)C2 [galantamine]
- symptoms, particularly attention and restlessness, ecological behavioural scale [1]: marked improvement of symptoms
- symptoms, especially attention, as measured by ANT (patients with ADD): symptoms have generally improved
